Test results published in patent US11040011B2 (priority 2016, dated 2021).

Test: Metal meloxicam complex precipitation and dissolution of the precipitate in organic solvents
Assay type: physicochemical
Settings: 1:1 process, 20 mM MLX pH 8.2 + 20 mM metal chloride pH 5.5

Substance	MLX not precipitated (% in Supernatant) [%]
Copper(II)	17
Magnesium (II)	71
